Results reported in the supplement of paper PMC10849652.
The list shows a part of the results.

By UniProt entry, the sequences of proteins in these tests, tags left out. Where a name states a change or a piece, a line headed by the entry shows the natural chain unless it says otherwise.
UniProt O75691: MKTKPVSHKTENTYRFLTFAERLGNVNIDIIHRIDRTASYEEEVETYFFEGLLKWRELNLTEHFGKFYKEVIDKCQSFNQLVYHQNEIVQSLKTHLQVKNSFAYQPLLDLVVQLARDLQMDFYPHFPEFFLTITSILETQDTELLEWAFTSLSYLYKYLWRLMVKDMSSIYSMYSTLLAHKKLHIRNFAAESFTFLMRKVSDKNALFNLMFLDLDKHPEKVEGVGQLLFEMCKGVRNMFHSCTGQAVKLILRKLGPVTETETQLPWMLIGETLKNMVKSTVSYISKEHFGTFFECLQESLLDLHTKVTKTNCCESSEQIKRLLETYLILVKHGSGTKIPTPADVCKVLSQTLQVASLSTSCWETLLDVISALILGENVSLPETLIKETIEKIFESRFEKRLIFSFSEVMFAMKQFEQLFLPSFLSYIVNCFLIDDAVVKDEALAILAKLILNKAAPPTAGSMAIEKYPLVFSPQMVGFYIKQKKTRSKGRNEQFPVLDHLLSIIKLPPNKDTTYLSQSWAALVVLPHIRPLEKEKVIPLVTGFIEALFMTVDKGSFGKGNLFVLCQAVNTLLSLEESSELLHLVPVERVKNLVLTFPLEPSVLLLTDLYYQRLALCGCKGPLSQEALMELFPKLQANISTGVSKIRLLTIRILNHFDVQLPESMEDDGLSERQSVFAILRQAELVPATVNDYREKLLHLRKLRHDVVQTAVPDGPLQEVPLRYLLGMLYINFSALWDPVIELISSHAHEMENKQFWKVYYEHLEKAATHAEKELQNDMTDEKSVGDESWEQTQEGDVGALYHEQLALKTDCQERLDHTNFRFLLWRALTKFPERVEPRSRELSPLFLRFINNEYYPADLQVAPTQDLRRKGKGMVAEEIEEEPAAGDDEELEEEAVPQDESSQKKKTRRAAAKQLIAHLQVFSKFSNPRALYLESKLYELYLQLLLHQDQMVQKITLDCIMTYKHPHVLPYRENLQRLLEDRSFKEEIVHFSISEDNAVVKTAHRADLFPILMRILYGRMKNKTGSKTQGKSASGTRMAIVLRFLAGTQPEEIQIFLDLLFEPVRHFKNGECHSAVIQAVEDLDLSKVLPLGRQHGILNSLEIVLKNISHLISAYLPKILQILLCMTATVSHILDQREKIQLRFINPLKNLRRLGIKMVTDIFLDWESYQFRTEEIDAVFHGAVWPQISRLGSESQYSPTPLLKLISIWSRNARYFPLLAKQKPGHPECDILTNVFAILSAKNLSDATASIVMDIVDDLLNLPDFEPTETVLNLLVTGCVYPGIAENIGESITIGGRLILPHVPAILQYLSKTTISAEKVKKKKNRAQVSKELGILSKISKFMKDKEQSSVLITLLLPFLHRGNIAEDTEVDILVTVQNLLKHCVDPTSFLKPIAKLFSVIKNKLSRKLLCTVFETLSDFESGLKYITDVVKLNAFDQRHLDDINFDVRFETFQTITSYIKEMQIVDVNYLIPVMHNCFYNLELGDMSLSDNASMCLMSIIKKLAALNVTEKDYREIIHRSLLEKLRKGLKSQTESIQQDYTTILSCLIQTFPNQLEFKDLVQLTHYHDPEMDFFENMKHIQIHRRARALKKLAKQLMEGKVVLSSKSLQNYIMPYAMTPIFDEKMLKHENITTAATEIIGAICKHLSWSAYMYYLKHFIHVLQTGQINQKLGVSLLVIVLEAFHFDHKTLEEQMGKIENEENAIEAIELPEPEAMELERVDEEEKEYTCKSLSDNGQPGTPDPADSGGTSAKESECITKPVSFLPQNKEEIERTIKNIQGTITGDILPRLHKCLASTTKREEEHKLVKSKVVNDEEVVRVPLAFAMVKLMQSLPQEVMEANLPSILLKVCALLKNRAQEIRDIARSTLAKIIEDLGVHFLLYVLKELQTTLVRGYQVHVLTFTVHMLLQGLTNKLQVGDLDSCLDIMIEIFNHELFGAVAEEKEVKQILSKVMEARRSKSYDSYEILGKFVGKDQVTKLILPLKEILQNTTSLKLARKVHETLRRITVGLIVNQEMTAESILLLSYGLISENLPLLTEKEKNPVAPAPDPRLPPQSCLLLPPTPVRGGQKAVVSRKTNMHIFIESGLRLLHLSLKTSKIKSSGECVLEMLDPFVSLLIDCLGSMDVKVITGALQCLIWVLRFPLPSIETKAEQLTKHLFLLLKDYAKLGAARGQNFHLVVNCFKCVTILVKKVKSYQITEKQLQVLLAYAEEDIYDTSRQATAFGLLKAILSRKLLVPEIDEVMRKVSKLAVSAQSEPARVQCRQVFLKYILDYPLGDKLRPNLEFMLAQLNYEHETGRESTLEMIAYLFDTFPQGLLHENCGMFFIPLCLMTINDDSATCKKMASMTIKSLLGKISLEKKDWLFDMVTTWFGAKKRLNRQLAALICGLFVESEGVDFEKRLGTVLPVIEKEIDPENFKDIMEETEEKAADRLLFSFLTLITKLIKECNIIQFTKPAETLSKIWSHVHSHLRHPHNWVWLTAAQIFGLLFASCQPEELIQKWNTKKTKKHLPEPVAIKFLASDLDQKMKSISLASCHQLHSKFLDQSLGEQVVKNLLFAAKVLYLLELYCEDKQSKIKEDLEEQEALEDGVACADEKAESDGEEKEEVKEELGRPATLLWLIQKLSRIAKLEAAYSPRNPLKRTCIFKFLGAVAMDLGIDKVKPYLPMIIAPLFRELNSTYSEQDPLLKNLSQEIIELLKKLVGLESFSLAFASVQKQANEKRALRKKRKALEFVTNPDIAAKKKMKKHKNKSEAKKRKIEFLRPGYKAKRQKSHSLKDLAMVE
UniProt Q6ZT12: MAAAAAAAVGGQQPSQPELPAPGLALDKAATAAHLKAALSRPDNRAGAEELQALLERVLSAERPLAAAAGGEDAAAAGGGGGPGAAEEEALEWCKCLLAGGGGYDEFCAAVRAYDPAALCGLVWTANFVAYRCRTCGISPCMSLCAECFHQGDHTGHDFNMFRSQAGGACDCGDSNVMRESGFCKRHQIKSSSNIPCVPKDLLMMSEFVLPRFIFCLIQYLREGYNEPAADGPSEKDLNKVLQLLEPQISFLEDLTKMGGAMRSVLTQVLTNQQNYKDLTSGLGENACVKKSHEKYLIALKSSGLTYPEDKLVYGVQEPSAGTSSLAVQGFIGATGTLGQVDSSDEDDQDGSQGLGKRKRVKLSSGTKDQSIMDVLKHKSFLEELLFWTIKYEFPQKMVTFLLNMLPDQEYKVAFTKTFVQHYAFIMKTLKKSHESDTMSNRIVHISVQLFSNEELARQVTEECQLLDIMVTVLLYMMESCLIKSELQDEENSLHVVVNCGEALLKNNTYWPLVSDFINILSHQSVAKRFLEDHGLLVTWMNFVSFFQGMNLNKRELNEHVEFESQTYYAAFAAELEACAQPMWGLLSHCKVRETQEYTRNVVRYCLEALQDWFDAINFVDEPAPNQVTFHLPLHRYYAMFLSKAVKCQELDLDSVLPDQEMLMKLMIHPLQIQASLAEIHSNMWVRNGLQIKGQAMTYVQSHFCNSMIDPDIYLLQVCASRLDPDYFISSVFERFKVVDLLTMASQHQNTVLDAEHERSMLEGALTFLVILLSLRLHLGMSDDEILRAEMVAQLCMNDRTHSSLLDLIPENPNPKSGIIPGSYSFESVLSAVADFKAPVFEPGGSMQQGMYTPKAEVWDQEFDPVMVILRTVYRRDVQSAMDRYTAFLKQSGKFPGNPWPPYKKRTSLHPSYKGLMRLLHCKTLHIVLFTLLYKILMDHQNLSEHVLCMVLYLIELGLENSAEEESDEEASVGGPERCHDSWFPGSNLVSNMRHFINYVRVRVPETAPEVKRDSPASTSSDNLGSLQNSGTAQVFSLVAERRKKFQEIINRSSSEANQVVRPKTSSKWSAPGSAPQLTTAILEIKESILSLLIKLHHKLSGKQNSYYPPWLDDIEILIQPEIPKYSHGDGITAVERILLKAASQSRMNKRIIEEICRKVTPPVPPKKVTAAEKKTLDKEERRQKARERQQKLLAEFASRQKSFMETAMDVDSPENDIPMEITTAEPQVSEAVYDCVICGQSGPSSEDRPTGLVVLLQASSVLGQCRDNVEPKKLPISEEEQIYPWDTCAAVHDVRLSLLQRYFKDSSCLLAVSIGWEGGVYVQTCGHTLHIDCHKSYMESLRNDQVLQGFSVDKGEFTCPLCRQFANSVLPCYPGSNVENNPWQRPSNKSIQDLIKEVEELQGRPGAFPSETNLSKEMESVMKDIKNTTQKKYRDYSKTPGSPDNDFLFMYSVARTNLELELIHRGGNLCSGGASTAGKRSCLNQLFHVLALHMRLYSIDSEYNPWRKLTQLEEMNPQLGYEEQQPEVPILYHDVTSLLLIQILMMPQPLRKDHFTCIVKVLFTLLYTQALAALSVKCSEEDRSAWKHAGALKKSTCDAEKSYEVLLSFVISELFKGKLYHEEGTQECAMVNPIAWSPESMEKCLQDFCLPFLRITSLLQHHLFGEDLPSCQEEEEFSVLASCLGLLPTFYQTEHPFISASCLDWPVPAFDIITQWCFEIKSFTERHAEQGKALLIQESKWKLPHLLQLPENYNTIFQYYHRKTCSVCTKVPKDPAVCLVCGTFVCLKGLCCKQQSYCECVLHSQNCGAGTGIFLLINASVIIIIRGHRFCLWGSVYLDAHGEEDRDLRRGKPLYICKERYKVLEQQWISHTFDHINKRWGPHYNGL
UniProt Q9BZM6: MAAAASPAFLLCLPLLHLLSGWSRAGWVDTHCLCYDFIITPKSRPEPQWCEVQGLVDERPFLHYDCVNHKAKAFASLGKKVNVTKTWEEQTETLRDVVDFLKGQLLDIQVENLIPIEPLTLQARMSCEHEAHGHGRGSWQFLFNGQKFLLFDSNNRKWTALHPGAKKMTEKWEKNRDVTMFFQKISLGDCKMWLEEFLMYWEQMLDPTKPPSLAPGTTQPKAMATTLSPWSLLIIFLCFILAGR
UniProt O00124: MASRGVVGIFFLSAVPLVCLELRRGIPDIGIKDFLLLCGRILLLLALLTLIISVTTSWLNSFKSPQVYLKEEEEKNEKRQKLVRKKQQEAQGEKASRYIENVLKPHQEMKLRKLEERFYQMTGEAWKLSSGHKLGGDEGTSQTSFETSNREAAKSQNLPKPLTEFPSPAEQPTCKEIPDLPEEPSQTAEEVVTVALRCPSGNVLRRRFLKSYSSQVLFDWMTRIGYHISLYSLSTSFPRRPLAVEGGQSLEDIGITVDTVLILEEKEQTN
UniProt Q9BQ65: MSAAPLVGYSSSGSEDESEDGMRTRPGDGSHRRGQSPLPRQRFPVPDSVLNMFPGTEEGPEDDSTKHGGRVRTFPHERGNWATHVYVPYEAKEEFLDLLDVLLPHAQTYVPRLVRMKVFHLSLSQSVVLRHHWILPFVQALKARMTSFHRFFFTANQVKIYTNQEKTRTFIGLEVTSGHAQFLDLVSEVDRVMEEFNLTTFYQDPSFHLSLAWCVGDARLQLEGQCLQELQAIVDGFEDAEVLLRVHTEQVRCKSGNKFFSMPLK
UniProt P62068, whole entry, looked up: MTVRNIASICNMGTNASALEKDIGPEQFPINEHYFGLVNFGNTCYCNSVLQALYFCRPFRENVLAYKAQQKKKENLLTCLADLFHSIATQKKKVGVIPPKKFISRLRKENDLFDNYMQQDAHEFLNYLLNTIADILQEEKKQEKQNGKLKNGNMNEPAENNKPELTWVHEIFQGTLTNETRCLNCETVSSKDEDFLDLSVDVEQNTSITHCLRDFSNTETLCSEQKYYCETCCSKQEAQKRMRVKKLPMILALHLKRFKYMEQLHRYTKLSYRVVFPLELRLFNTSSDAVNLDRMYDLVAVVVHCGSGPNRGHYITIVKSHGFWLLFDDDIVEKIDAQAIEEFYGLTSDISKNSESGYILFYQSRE
UniProt Q9BZM5, whole entry, looked up: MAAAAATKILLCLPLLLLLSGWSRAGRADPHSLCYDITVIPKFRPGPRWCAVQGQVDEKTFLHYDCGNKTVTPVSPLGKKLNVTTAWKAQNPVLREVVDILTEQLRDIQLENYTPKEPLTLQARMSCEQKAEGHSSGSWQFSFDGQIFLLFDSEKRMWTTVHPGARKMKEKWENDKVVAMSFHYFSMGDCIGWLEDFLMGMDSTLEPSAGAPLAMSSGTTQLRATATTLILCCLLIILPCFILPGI
UniProt P09936: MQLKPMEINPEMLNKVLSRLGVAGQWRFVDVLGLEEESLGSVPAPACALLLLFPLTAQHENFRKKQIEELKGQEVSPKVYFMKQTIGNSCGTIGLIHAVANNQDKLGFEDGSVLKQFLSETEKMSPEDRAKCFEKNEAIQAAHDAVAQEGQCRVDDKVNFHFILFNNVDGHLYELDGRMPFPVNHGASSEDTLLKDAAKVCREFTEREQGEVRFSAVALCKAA
UniProt Q16831: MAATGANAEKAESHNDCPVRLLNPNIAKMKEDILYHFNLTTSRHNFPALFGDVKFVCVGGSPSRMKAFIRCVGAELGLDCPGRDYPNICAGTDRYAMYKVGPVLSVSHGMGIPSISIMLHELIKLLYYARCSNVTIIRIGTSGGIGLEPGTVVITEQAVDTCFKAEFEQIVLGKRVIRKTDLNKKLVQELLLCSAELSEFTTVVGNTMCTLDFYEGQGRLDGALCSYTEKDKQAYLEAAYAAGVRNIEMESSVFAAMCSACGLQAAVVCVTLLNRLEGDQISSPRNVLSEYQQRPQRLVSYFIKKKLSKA

Columns and labels:
Assay in all cases: log2 fold change, soluble protein after heating vs DMSO (PISA); higher = thermal stabilisation; K562 cells, 10 uM, 30 min; active = over 0.2 and 3.5 SD of the protein, either way, in both replicates (recomputed)
[1] = compound: COC1=CC=C(C=C1)CN2C=CC3=C2C=C(C=C3)C(=O)NO
How it was run: (§1)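 Values are thermal stability changes relative to control samples and are taken from duplicates. They are stated as log2 fold changes. Before quantification by TMTpro 16plex LC-MS/MS with equalised channel sums, K562 cells at 2×10^6 cells/mL were treated with 10 μM compound for 30 min, heated in aliquots for 3 min across 48°C-58°C, pooled, extracted in PBS with 0.5% NP-40 at 4°C, and centrifuged at 21,000xg for 90 min to give the soluble supernatant.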

filanesib = compound: CON(C)C(=O)N1N=C(c2cc(F)ccc2F)S[C@@]1(CCCN)c1ccccc1 [filanesib]
How it was run: as §1

zotarolimus = compound: CO[C@H]1C[C@@H]2CC[C@@H](C)[C@@](O)(O2)C(=O)C(=O)N2CCCC[C@H]2C(=O)O[C@H]([C@H](C)C[C@@H]2CC[C@H](n3cnnn3)[C@H](OC)C2)CC(=O)[C@H](C)/C=C(\C)[C@@H](O)[C@@H](OC)C(=O)[C@H](C)C[C@H](C)/C=C/C=C/C=C/1C [zotarolimus]
How it was run: as §1

alisertib = compound: COc1cc(Nc2ncc3c(n2)-c2ccc(Cl)cc2C(c2c(F)cccc2OC)=NC3)ccc1C(=O)O [alisertib]
How it was run: as §1

gefitinib = compound: COc1cc2ncnc(Nc3ccc(F)c(Cl)c3)c2cc1OCCCN1CCOCC1 [gefitinib]
How it was run: as §1

[2] = compound: COc1cccc2cc(-c3nc([C@H]4CC[C@H](C(=O)O)CC4)n4ncnc(N)c34)[nH]c12
How it was run: as §1

idasanutlin = compound: COc1cc(C(=O)O)ccc1NC(=O)[C@@H]1N[C@@H](CC(C)(C)C)[C@](C#N)(c2ccc(Cl)cc2F)[C@H]1c1cccc(Cl)c1F [idasanutlin]
How it was run: as §1

pictilisib = compound: CS(=O)(=O)N1CCN(Cc2cc3nc(-c4cccc5[nH]ncc45)nc(N4CCOCC4)c3s2)CC1 [pictilisib]
How it was run: as §1

[3] = compound: COc1cc2nc(-c3cc(F)ccc3O)nc(N[C@@H]3CNC[C@H]3C(C)(C)O)c2cc1OC
How it was run: as §1

lapatinib = compound: CS(=O)(=O)CCNCc1ccc(-c2ccc3ncnc(Nc4ccc(OCc5cccc(F)c5)c(Cl)c4)c3c2)o1 [lapatinib]
How it was run: as §1

Measured: log2 fold change

UBP1 (UniProt Q9NZI7)
inactive: [1] -0.054 | filanesib 0.061 | zotarolimus -0.087 | alisertib 0.019 | gefitinib 0.028 | [2] 0.131

URM1 isoform 2 (UniProt Q9BTM9)
inactive: [1] 0.034 | filanesib 0.05 | idasanutlin -0.047 | alisertib -0.025 | gefitinib 0.1 | [2] -0.04 | pictilisib 0.097

USP54 (UniProt Q70EL1)
inactive: alisertib -0.168 | [3] 0 | [2] 0.131 | lapatinib 0.109 | pictilisib -0.238

UNC13A (UniProt Q9UPW8)
inactive: filanesib -0.178

USP11 (UniProt P51784)
inactive: filanesib 0.306 | zotarolimus -0.028 | alisertib 0.109 | [3] -0.093 | [2] -0.48 | lapatinib 0.163 | pictilisib -0.064

UTP20 (UniProt O75691)
inactive: [3] -0.087 | lapatinib 0.076

UQCC3 (UniProt Q6UW78)
inactive: zotarolimus -0.073 | gefitinib 0.186 | pictilisib -0.281

UBR1 (UniProt Q8IWV7)
inactive: filanesib 0.093 | zotarolimus 0.273 | idasanutlin 0.144 | alisertib -0.008 | gefitinib 0.027 | [2] -0.031 | pictilisib 0.104

VASN (UniProt Q6EMK4)
inactive: filanesib -0.023

UTP23 (UniProt Q9BRU9)
inactive: zotarolimus 0.037 | gefitinib -0.224

UBR3 isoform 4 (UniProt Q6ZT12)
inactive: [1] -0.166 | filanesib 0.038 | zotarolimus -0.043 | [3] 0.045 | lapatinib -0.086

UGP2 (UniProt C9JWG0)
inactive: [1] -0.002 | filanesib 0.099 | idasanutlin 0.009 | alisertib 0.136 | gefitinib 0.101 | [2] 0.26

USF3 (UniProt Q68DE3)
inactive: [1] -0.412 | filanesib 0.086 | alisertib -0.057 | [3] 0.155 | [2] 0.223 | lapatinib -0.332

VAMP3 (UniProt Q15836)
inactive: [1] 0.081 | zotarolimus -0.155 | alisertib -0.048 | gefitinib -0.004 | [2] 0.162

ULBP1 (UniProt Q9BZM6)
inactive: filanesib 0.071 | zotarolimus 0.022 | idasanutlin 0.036 | alisertib -0.023 | [3] 0.164 | [2] 0.001 | lapatinib 0.002

UBXN8 (UniProt O00124)
inactive: filanesib 0.069 | zotarolimus -0.028 | idasanutlin -0.116 | [3] -0.035 | lapatinib 0.023 | pictilisib -0.002

UMAD1 (UniProt C9J7I0)
inactive: [1] 0.163 | zotarolimus 0.087 | alisertib -0.027 | [3] -0.219 | gefitinib -0.146 | [2] 0.011 | lapatinib -0.109 | pictilisib 0.124

VAV1 (UniProt P15498)
inactive: zotarolimus 0.272 | idasanutlin -0.015 | alisertib 0.06 | [2] 0.089 | pictilisib -0.068

UNG (UniProt P13051)
inactive: filanesib 0.035 | zotarolimus -0.013 | idasanutlin 0.004 | alisertib 0.024 | [2] -0.066 | pictilisib -0.011

USP27X (UniProt A6NNY8)
inactive: zotarolimus 0.049 | idasanutlin 0.023

ULK3 isoform 4 (UniProt Q6PHR2)
inactive: [1] 0.199 | filanesib -0.145 | [3] -0.136 | lapatinib 0.057 | pictilisib 0.056

URB2 (UniProt Q14146)
inactive: [1] -0.017 | zotarolimus -0.062 | idasanutlin -0.228 | gefitinib -0.107

USF1 (UniProt P22415)
inactive: [1] -0.117 | filanesib 0.11 | idasanutlin -0.097 | alisertib -0.051 | [3] -0.01 | gefitinib -0.041 | [2] 0 | lapatinib -0.056 | pictilisib -0.109

USP48 (UniProt Q86UV5)
inactive: filanesib -0.016 | alisertib 0.19 | gefitinib 0.053 | [2] -0.031

UBN2 (UniProt Q6ZU65)
inactive: [1] 0.013 | zotarolimus -0.155 | gefitinib -0.169

USP33 (UniProt Q8TEY7)
inactive: filanesib 0.195 | idasanutlin 0.246

USB1 (UniProt Q9BQ65)
inactive: zotarolimus 0.011 | [3] 0.123 | lapatinib -0.092 | pictilisib -0.206

USP46 (UniProt P62068)
inactive: [1] -0.009 | filanesib 0.037 | [3] -0.043 | lapatinib 0.072

UQCR11 (UniProt O14957)
inactive: [1] -0.013 | idasanutlin 0.192 | alisertib 0.153 | gefitinib 0.299 | [2] 0.292 | pictilisib -0.049

UFM1 isoform 2 (UniProt P61960)
inactive: filanesib -0.12 | zotarolimus -0.048 | idasanutlin 0 | alisertib -0.067 | [3] -0.085 | gefitinib 0.027 | [2] 0.008 | lapatinib -0.052 | pictilisib -0.062

USP16 (UniProt Q9Y5T5)
inactive: [1] -0.062 | zotarolimus 0.039 | idasanutlin 0.217 | alisertib -0.099 | gefitinib 0.083 | [2] -0.27 | pictilisib 0.012

VCPIP1 (UniProt Q96JH7)
inactive: filanesib 0.398 | pictilisib 0.357

ULBP2 (UniProt Q9BZM5)
inactive: filanesib 0.252 | zotarolimus -0.406 | alisertib 0.003 | [3] 0.532 | gefitinib 0.068 | [2] 0.059 | lapatinib 0.224

UBQLN1 isoform 2 (UniProt Q9UMX0)
inactive: alisertib 0.046 | [2] 0.069

Looked up one by one from the entries so far, three records:
UNC13A (UniProt Q9UPW8)
inactive: filanesib -0.178

VAMP3 (UniProt Q15836)
inactive: [1] 0.081 | zotarolimus -0.155 | alisertib -0.048 | gefitinib -0.004 | [2] 0.162

UGP2 (UniProt C9JWG0)
inactive: [1] -0.002 | filanesib 0.099 | idasanutlin 0.009 | alisertib 0.136 | gefitinib 0.101 | [2] 0.26

Following part.

UCHL1 (UniProt P09936)
inactive: pictilisib 0.075

UPP1 (UniProt Q16831)
inactive: [1] -0.109 | [3] -0.076 | lapatinib 0

UBQLN3 (UniProt Q9H347)
inactive: [1] -0.026 | zotarolimus -0.074 | idasanutlin 0.015 | alisertib -0.126 | [3] 0.145 | gefitinib 0.008 | [2] -0.453 | lapatinib 0.035 | pictilisib 0.322
